# The other results are listed elsewhere or left out.
# Sequences of proteins named here, by UniProt entry; tags and fusion partners are left off. A change or cut given only in a name is not applied to a line headed by its entry.
# UniProt Q12800: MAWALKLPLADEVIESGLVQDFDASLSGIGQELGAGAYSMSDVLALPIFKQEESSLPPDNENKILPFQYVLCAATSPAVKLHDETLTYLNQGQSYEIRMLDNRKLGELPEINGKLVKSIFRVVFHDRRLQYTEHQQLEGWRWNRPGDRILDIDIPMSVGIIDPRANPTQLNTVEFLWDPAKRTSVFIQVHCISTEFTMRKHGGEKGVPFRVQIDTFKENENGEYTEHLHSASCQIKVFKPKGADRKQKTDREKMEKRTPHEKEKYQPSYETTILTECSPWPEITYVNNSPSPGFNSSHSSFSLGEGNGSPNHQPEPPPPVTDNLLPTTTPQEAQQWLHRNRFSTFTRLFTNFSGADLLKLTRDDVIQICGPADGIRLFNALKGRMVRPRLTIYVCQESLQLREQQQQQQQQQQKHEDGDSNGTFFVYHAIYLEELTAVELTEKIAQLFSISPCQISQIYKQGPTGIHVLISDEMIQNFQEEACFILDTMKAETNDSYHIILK
# UniProt O60220: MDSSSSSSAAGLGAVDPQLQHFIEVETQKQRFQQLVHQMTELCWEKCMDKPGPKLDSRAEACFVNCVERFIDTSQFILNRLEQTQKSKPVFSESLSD
# UniProt Q8WUY1: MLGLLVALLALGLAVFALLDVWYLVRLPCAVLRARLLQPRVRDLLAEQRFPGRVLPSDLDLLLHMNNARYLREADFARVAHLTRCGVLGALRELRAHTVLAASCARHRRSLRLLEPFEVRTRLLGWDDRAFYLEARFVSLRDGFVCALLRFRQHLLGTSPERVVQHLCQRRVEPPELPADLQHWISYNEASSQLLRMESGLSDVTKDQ
# UniProt Q8NI27: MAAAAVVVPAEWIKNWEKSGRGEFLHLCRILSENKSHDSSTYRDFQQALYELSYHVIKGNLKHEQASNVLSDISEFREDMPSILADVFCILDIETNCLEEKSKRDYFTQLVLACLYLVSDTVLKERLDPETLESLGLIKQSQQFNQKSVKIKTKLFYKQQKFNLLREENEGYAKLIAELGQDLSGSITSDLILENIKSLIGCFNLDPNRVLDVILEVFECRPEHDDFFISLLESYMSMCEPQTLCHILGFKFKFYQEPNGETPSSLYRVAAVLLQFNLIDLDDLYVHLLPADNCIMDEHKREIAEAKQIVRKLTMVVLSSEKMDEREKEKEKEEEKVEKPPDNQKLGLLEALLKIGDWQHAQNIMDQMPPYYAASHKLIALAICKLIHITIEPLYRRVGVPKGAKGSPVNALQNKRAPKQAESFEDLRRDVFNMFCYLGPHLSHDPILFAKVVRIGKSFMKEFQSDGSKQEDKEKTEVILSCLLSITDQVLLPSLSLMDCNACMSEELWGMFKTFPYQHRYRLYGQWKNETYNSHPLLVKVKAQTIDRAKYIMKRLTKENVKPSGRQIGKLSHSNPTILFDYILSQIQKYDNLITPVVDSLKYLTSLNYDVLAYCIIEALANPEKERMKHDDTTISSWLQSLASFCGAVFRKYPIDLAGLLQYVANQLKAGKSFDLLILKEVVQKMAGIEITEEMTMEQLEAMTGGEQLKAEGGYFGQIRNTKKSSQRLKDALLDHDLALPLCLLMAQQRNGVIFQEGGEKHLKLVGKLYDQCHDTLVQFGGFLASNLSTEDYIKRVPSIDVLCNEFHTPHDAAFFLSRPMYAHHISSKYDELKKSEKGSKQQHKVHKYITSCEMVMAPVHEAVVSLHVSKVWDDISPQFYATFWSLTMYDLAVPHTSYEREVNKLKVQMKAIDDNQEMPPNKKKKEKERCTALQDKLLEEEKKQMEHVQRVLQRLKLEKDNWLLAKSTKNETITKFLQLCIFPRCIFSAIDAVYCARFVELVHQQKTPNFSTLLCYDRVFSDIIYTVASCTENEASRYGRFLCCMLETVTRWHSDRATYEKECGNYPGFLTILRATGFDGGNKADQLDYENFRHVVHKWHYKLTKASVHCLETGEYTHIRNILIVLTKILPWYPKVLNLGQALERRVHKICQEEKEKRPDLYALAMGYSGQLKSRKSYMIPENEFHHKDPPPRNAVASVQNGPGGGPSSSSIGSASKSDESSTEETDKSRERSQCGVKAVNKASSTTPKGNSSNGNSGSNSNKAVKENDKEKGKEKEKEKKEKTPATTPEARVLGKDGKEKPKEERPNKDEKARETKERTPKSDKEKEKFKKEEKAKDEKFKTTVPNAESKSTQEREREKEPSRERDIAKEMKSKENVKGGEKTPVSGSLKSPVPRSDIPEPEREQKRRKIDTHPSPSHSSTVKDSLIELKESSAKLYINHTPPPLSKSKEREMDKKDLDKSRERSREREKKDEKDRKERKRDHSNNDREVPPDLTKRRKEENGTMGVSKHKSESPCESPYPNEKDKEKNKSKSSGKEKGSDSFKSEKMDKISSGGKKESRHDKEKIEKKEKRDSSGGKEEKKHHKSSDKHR
# UniProt Q9NU19: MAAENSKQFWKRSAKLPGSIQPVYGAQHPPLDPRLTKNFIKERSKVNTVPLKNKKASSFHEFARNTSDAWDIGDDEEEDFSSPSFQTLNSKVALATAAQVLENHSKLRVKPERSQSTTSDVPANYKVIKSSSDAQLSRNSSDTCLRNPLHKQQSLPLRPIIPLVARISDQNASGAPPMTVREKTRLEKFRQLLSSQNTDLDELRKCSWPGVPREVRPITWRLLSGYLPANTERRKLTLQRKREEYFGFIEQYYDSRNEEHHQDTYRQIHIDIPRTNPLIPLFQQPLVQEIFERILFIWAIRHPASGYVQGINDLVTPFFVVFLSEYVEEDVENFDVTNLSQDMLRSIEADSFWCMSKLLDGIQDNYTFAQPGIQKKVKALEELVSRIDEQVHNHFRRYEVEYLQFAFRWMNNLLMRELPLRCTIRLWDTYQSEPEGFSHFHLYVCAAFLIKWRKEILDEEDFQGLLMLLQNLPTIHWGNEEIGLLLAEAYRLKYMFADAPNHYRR
# UniProt Q99595: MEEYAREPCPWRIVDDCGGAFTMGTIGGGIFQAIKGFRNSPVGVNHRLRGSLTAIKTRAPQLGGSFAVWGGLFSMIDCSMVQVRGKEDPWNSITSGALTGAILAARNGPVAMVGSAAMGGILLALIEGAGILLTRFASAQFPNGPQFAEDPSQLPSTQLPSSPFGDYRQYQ
# UniProt O43615: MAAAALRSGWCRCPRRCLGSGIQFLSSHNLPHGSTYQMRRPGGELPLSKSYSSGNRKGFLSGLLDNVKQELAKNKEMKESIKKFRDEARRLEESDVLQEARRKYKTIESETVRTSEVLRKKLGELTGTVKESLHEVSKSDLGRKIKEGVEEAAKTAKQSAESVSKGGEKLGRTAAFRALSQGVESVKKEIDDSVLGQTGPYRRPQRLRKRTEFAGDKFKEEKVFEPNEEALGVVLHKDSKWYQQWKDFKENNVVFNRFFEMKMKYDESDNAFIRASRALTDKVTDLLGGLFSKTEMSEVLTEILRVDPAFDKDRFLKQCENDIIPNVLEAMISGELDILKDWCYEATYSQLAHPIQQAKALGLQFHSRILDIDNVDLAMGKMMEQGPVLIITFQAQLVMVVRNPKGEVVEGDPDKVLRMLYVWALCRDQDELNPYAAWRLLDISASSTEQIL
# UniProt Q9Y2W1: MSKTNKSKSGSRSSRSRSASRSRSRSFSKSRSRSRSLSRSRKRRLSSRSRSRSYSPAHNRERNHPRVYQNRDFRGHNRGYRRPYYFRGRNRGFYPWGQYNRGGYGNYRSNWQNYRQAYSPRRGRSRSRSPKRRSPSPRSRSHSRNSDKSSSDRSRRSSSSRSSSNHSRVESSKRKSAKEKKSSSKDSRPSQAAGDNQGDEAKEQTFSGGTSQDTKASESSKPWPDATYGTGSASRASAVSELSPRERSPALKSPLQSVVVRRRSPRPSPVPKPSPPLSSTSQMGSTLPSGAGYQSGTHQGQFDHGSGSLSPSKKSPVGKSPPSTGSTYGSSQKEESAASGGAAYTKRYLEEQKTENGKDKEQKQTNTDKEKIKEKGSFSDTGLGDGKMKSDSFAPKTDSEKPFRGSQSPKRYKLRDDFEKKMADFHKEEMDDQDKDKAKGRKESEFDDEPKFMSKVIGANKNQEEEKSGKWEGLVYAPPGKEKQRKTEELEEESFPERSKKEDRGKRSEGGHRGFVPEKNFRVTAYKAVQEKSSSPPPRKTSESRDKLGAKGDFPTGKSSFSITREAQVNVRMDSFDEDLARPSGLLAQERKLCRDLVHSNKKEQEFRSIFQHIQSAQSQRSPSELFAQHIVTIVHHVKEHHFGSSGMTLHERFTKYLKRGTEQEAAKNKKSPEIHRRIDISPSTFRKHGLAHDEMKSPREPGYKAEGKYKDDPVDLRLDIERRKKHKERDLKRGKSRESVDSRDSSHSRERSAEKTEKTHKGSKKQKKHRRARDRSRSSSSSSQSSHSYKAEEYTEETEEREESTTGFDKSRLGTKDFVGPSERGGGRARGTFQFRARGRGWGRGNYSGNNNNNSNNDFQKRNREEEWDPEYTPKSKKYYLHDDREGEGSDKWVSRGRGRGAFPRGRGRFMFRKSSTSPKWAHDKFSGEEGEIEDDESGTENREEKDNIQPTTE
# UniProt Q9UP52: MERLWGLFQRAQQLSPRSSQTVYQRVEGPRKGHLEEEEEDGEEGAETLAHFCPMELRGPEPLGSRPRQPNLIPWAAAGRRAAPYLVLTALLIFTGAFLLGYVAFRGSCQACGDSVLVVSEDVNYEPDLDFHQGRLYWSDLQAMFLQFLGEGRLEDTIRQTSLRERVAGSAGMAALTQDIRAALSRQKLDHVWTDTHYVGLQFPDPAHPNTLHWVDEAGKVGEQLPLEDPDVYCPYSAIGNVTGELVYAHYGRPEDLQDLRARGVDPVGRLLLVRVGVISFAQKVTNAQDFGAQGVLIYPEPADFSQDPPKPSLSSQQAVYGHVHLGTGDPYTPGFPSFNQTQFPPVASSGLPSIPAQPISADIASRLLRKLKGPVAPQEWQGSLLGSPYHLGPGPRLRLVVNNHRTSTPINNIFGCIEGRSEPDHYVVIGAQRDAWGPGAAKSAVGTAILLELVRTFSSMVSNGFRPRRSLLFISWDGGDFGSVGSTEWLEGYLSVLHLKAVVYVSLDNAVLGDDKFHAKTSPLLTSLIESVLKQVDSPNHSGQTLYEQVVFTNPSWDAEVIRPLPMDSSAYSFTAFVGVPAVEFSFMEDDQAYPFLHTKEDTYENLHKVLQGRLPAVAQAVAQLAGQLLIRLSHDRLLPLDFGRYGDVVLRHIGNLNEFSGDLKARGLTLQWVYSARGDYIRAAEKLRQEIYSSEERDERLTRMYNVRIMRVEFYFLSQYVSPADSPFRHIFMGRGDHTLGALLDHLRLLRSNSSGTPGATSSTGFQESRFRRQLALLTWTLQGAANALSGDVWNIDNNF
# UniProt Q15582: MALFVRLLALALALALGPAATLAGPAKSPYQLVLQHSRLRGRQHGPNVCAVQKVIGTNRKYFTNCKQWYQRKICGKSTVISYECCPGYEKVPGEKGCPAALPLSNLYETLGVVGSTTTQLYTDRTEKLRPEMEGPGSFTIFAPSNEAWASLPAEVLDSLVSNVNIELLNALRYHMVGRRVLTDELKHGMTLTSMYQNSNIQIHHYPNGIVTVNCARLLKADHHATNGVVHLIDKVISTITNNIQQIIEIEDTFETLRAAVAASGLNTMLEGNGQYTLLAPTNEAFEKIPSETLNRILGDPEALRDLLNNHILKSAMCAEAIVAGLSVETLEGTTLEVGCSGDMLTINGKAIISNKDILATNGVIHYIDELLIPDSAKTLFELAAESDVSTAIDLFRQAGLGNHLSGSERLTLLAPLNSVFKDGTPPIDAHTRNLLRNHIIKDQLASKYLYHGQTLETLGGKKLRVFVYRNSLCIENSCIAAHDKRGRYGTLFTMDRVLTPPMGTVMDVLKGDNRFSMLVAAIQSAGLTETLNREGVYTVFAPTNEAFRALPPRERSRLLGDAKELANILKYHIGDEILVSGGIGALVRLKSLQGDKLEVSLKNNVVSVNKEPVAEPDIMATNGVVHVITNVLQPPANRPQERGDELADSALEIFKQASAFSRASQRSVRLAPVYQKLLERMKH
# UniProt P36897: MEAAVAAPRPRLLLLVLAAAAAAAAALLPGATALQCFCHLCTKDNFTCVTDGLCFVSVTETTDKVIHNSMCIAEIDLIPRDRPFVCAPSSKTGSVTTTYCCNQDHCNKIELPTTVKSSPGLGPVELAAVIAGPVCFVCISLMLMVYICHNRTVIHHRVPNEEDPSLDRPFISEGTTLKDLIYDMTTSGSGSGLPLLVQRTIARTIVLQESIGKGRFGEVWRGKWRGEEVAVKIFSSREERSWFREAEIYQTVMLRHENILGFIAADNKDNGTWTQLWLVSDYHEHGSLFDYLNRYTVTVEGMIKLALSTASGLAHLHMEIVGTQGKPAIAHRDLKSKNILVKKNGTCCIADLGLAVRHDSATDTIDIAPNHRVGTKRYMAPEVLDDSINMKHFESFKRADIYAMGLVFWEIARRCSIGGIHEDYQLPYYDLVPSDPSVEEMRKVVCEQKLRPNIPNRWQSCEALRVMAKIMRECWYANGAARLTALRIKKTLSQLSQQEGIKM
# Tests used:
# Test in all cases: log2 fold change, soluble protein after heating vs DMSO (PISA); higher = thermal stabilisation; K562 cells, 10 uM, 30 min; active = over 0.2 and 3.5 SD of the protein, either way, in both replicates (recomputed)
# saracatinib = compound: CN1CCN(CCOc2cc(OC3CCOCC3)c3c(Nc4c(Cl)ccc5c4OCO5)ncnc3c2)CC1 [saracatinib]
# Procedure, shortened: (§1)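 Values are thermal stability changes relative to control samples and are taken from duplicates. They are stated as log2 fold changes. Before quantification by TMTpro 16plex LC-MS/MS with equalised channel sums, K562 cells at 2×10^6 cells/mL were treated with 10 μM compound for 30 min, heated in aliquots for 3 min across 48°C-58°C, pooled, extracted in PBS with 0.5% NP-40 at 4°C, and centrifuged at 21,000xg for 90 min to give the soluble supernatant.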
# sotrastaurin = compound: CN1CCN(c2nc(C3=C(c4c[nH]c5ccccc45)C(=O)NC3=O)c3ccccc3n2)CC1 [sotrastaurin]
# Procedure, shortened: as §1
# alvocidib = compound: CN1CC[C@H](c2c(O)cc(O)c3c(=O)cc(-c4ccccc4Cl)oc23)[C@H](O)C1 [alvocidib]
# Procedure, shortened: as §1
# Tubastatin A = compound: CN1CCc2c(c3ccccc3n2Cc2ccc(C(=O)NO)cc2)C1 [Tubastatin A]
# Procedure, shortened: as §1
# [1] = compound: CNC(=O)C1=CC=CC=C1NC2=NC(=NC=C2Cl)NC3=C(C=C(C=C3)N4CCOCC4)OC
# Procedure, shortened: as §1
# defactinib = compound: CNC(=O)c1ccc(Nc2ncc(C(F)(F)F)c(NCc3nccnc3N(C)S(C)(=O)=O)n2)cc1 [defactinib]
# Procedure, shortened: as §1
# rucaparib = compound: CNCc1ccc(-c2[nH]c3cc(F)cc4c3c2CCNC4=O)cc1 [rucaparib]
# Procedure, shortened: as §1
# [2] = compound: CNc1nc(-c2ccc3c(N)n[nH]c3c2)cc(N2C[C@@H](C(=O)NC3CCCCC3)CC[C@H]2C)n1
# Procedure, shortened: as §1
# encorafenib = compound: COC(=O)N[C@@H](C)CNc1nccc(-c2cn(C(C)C)nc2-c2cc(Cl)cc(NS(C)(=O)=O)c2F)n1 [encorafenib]
# Procedure, shortened: as §1
# [3] = compound: COC(=O)[C@H](CCSC)NC(=O)C1=C(C=C(C=C1)NC[C@H](CS)N)C2=CC=CC=C2
# Procedure, shortened: as §1
Target,log2 fold change (saracatinib),log2 fold change (sotrastaurin),log2 fold change (alvocidib),log2 fold change (Tubastatin A),log2 fold change [1],log2 fold change (defactinib),log2 fold change (rucaparib),log2 fold change [2],log2 fold change (encorafenib),log2 fold change [3]
TBC1D24 (UniProt Q9ULP9),inactive: -0.025,inactive: -0.016,active: -0.379,inactive: -0.044,inactive: -0.075,inactive: -0.106,inactive: -0.148,inactive: 0.077,inactive: -0.011,inactive: -0.005
TKFC (UniProt Q3LXA3),inactive: 0.007,inactive: 0.034,inactive: -0.012,inactive: -0.025,inactive: -0.042,inactive: -0.03,inactive: -0.055,inactive: -0.052,inactive: -0.021,inactive: 0.005
TFCP2 (UniProt Q12800),inactive: -0.387,inactive: 0.105,inactive: -0.107,–,inactive: -0.057,–,inactive: 0.232,inactive: 0.087,inactive: 0.09,–
TIMM8A (UniProt O60220),inactive: -0.105,inactive: 0.022,inactive: -0.053,inactive: 0.053,inactive: 0.02,inactive: -0.096,inactive: 0.069,inactive: -0.093,inactive: -0.095,inactive: 0.096
THEM6 (UniProt Q8WUY1),inactive: 0.013,inactive: 0.041,inactive: -0.017,inactive: -0.074,inactive: -0.001,inactive: -0.016,inactive: 0.013,inactive: 0.002,inactive: -0.043,inactive: 0.018
TGFB1 (UniProt P01137),inactive: -0.001,inactive: 0.053,inactive: 0.02,inactive: 0.003,inactive: 0.008,inactive: -0.022,inactive: -0.006,inactive: -0.007,inactive: 0.004,inactive: -0.03
TJP2 isoform 7 (UniProt Q9UDY2),inactive: -0.074,inactive: -0.151,–,inactive: 0.047,inactive: -0.06,inactive: -0.211,inactive: 0.051,inactive: 0.054,inactive: 0.066,inactive: -0.097
TESC (UniProt Q96BS2),inactive: 0.143,inactive: 0.028,inactive: -0.135,inactive: -0.052,inactive: 0.01,inactive: -0.018,inactive: -0.074,inactive: -0.157,inactive: 0.047,inactive: 0.057
THOC6 (UniProt Q86W42),inactive: 0.003,inactive: 0.019,inactive: -0.057,inactive: -0.035,inactive: -0.067,inactive: -0.001,inactive: 0.043,inactive: -0.006,inactive: 0.031,inactive: 0
THOC2 (UniProt Q8NI27),inactive: 0.023,inactive: -0.076,inactive: 0.057,inactive: 0.003,inactive: -0.08,inactive: -0.037,inactive: 0.162,inactive: -0.002,inactive: 0.09,inactive: -0.011
THOC1 (UniProt Q96FV9),inactive: 0.003,inactive: -0.045,inactive: -0.065,inactive: 0.032,inactive: -0.014,inactive: -0.001,inactive: 0.217,inactive: -0.059,inactive: -0.017,inactive: 0.085
TBC1D22B (UniProt Q9NU19),inactive: 0.078,inactive: -0.033,inactive: -0.144,inactive: -0.006,inactive: 0.012,inactive: -0.013,inactive: -0.209,inactive: -0.016,inactive: 0.225,inactive: -0.01
TBC1D9B (UniProt Q66K14),inactive: -0.023,inactive: 0.077,–,inactive: 0.063,inactive: -0.07,inactive: -0.064,inactive: 0.009,inactive: -0.01,inactive: 0.065,inactive: 0.027
TIMM17A (UniProt Q99595),inactive: 0.047,inactive: 0.012,inactive: 0.007,inactive: 0,inactive: -0.019,inactive: 0.002,inactive: -0.038,inactive: -0.037,inactive: 0.006,inactive: 0.062
TFPI (UniProt P10646),inactive: -0.049,inactive: 0.135,inactive: 0.082,inactive: 0.062,inactive: 0,inactive: -0.021,–,inactive: -0.024,–,inactive: 0.045
TGDS (UniProt O95455),inactive: 0.1,inactive: 0.078,inactive: 0.042,inactive: 0.07,inactive: 0.047,inactive: 0.133,–,inactive: 0.02,–,inactive: 0.219
THBS4 (UniProt P35443),inactive: 0.09,inactive: 0.32,inactive: 0.109,inactive: -0.191,inactive: 0.246,inactive: 0.021,inactive: -0.066,inactive: -0.096,inactive: -0.075,inactive: 0.062
TGFBR3 (UniProt Q03167),inactive: -0.081,inactive: -0.045,inactive: -0.013,inactive: -0.007,inactive: -0.036,inactive: 0.035,inactive: 0.008,inactive: 0.045,inactive: -0.015,inactive: -0.01
THEM4 (UniProt Q5T1C6),inactive: 0.066,inactive: 0.05,inactive: 0.012,inactive: -0.028,inactive: 0.065,inactive: -0.025,inactive: 0.011,inactive: -0.069,inactive: -0.016,inactive: 0.075
TIMM44 (UniProt O43615),inactive: -0.055,inactive: -0.132,–,inactive: -0.055,inactive: -0.012,inactive: -0.035,inactive: -0.12,inactive: -0.057,inactive: 0.054,inactive: 0.007
THRAP3 (UniProt Q9Y2W1),inactive: 0.035,inactive: 0.008,–,inactive: 0.048,inactive: -0.266,inactive: -0.29,inactive: -0.002,inactive: -0.047,inactive: -0.015,inactive: 0.019
TFR2 (UniProt Q9UP52),inactive: 0.007,inactive: -0.031,–,inactive: -0.053,inactive: 0.006,inactive: 0.029,inactive: 0.029,inactive: -0.129,inactive: -0.015,inactive: 0.009
TGFBI (UniProt Q15582),inactive: 0.017,inactive: 0.171,–,inactive: -0.005,inactive: -0.014,inactive: -0.037,inactive: -0.06,inactive: -0.113,inactive: 0.006,inactive: 0.098
TLCD3A (UniProt Q8TBR7),inactive: 0.164,inactive: 0.055,–,inactive: -0.036,–,inactive: -0.102,inactive: -0.005,inactive: -0.186,inactive: -0.053,inactive: 0.003
TGFBR1 isoform 2 (UniProt P36897),active: 0.371,inactive: 0.026,–,inactive: 0.023,inactive: -0.045,inactive: 0.039,inactive: 0.096,inactive: 0.041,inactive: 0.041,inactive: -0.055
TERF2IP (UniProt Q9NYB0),inactive: 0.038,inactive: -0.065,–,inactive: 0.128,inactive: 0.008,inactive: -0.195,inactive: -0.052,inactive: -0.016,inactive: -0.011,inactive: -0.007
TJP1 (UniProt Q07157),inactive: -0.049,inactive: -0.064,–,inactive: 0.045,inactive: -0.099,inactive: -0.16,inactive: 0.018,inactive: 0.003,inactive: 0.029,inactive: -0.056
TGM2 (UniProt A2A299),inactive: -0.009,–,inactive: -0.009,inactive: 0,inactive: -0.102,inactive: 0.085,–,inactive: -0.19,–,inactive: -0.075

# Reformatted: entries from further up.
Target	log2 fold change (saracatinib)	log2 fold change (sotrastaurin)	log2 fold change (alvocidib)	log2 fold change (Tubastatin A)	log2 fold change [1]	log2 fold change (defactinib)	log2 fold change (rucaparib)	log2 fold change [2]	log2 fold change (encorafenib)	log2 fold change [3]
TGFBI (UniProt Q15582)	inactive: 0.017	inactive: 0.171	–	inactive: -0.005	inactive: -0.014	inactive: -0.037	inactive: -0.06	inactive: -0.113	inactive: 0.006	inactive: 0.098
TLCD3A (UniProt Q8TBR7)	inactive: 0.164	inactive: 0.055	–	inactive: -0.036	–	inactive: -0.102	inactive: -0.005	inactive: -0.186	inactive: -0.053	inactive: 0.003

# Reference: the supplement of paper PMC10849652
